Literature values as cited in patent publication US8497290B2, “Thiocolchicine derivatives, method of making and methods of use thereof” (priority 2009, dated 2013).

Test system: rat model
Conditions: metabolites of thiocolchicoside, compared with thiocolchicoside

For `COc1c(O)cc2c(c1OC)-c1ccc(SC)c(=O)cc1C(NC(C)=O)CC2` (stereo not shown) [aglycone derivative, 3-demethylthiocolchicine], the muscle relaxant activity is given as “no muscle relaxant activity”.
